Data as given in PubChem BioAssay AID1259424 (University of Nebraska Medical Center, 2018)
The deposit covers about 14,000 reagents; below is an unselected part. 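Higher correlation or smaller distance means closer resemblance to KSR1 loss; control wells, including KSR1 knockdowns, recur on many plates.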 The record does not give: the time to read-out.

Aim: 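Rank knockdowns across the genome by resemblance to the KSR1 depletion profile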 (primary screen)
System: human HCT116 colon cancer cells
Reagent: siRNA pool against human genes, 50 nM
Detection: 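Log2 levels of six mRNAs (branched-DNA multiplex), adjusted by two reference genes and the non-targeting median, then scored against the average KSR1 knockdown pattern as Pearson r and euclidean distance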
Reading the numbers: mean correlation with KSR1 profile and KSR1 correlation: higher = expression change more like KSR1 knockdown; mean distance from KSR1 profile: higher = expression change less like KSR1 knockdown

no.	gene	mean correlation with KSR1 profile	mean distance from KSR1 profile	KSR1 correlation, replicate 1	KSR1 correlation, replicate 2	KSR1 correlation, replicate 3
1	POF1B	0.737	1.14	0.696	0.831	0.598
2	COL3A1	-0.803	2.68	-0.651	-0.861	-0.792
3	ECI1	0.0703	2.83	0.0975	-0.055	0.221
4	SLC35G5	0.858	1.67	0.862	0.783	0.898
5	CYLD	0.255	1.32	0.19	0.0601	0.496
6	RUSC2	0.144	4.34	0.084	0.129	0.134
7	ACVRL1	-0.000443	4.04	0.0243	-0.0793	-0.247
8	MON2	-0.0466	1.23	-0.144	0.104	-0.0593
9	PPM1D	0.0222	1.88	-0.0225	-0.0507	0.0755
10	BORA	0.562	2.64	0.549	0.76	0.405
11	CACNA1H	0.275	1.72	0.279	0.162	0.375
12	TNFRSF10D	-0.0448	2.07	-0.0328	-0.085	-0.046
13	DNMT1	0.327	3.2	0.391	0.21	0.221
14	PWP2	-0.323	2.96	-0.254	-0.591	0.244
15	EPHB1	0.651	1.17	0.554	0.47	0.685
16	H2BC4	-0.188	2.67	0.0325	-0.284	-0.249
17	SEMG1	-0.131	2.79	-0.163	-0.204	0.0218
18	STRADB	0.218	2.06	0.0564	0.331	-0.187
19	C21orf58	0.00607	1.97	-0.117	-0.0203	-0.117
20	TSPAN14	0.733	1.5	0.662	0.639	0.471
21	CARMIL1	-0.398	1.9	-0.534	-0.368	-0.184
22	HEBP1	-0.65	3.23	-0.545	-0.57	-0.562
23	ZNF263	-0.349	1.77	-0.224	-0.212	-0.838
24	DLG5	0.507	1.76	0.517	0.353	0.534
25	PODXL2	-0.92	2.27	-0.713	-0.887	-0.932
26	ADTRP	-0.0213	2.88	-0.293	0.151	-0.0809
27	ADIPOQ	-0.483	2.12	-0.65	-0.484	-0.136
28	THADA	-0.246	1.46	-0.372	-0.37	-0.285
29	FAM8A1	-0.3	1.56	-0.279	-0.355	-0.169
30	KCNJ6	0.507	1.8	0.471	0.523	0.366
31	TXNDC11	-0.312	2.63	-0.112	-0.428	-0.285
32	USP34	-0.791	1.64	-0.552	-0.4	-0.559
33	SLC8A1	-0.262	1.28	-0.378	-0.35	0.181
34	TAS2R4	0.782	0.953	0.694	0.9	0.837

4 neighbouring reagents from above, quoted:
no.	gene	mean correlation with KSR1 profile	mean distance from KSR1 profile	KSR1 correlation, replicate 1	KSR1 correlation, replicate 2	KSR1 correlation, replicate 3
1	POF1B	0.737	1.14	0.696	0.831	0.598
2	COL3A1	-0.803	2.68	-0.651	-0.861	-0.792
3	ECI1	0.0703	2.83	0.0975	-0.055	0.221
4	SLC35G5	0.858	1.67	0.862	0.783	0.898
